From PubChem BioAssay record AID1963591 (Tox21, 2024).

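CRE-bla HEK293T reporter cells under cAMP stimulation; the beta-lactamase FRET ratio is measured about 3 hours after compound addition.
Each compound was run as a concentration series, mostly reaching a top of 92.4 µM.
Fitted potency from the dose curve; a lower value means a more potent compound.
Calls come from the whole dose curve: active means a well-fitted inhibition curve with enough effect in repeat runs, inconclusive means weak, mixed or opposite-direction curves, and inactive means a flat curve.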

Values are in nM.
Every entry below has the call inconclusive.
Only part of the assay is shown, chiefly results filed as inconclusive.
A potency from a partial, single-point or poor curve is only a rough figure.
Some entries filed as inconclusive have a full curve.
The first word of each remark tells which way the curve ran; it can be opposite to the aim of the assay.

| Compound | fitted potency (nM) | remark |
|---|---|---|
| `CCCC1C(CC)=CC(CC)=CN1c1ccccc1` (stereo unspecified) | 54482 | fluorescent, partial curve |
| `CCCCCCCC/C=C/CCCCCCCC1=NCCN1CCO` | 63904 | activator |
| `IC(I)=C(I)I` | 61130 | fluorescent, partial curve |
| `CC(C)(c1ccc(OCC2CO2)cc1)c1ccc(OCC2CO2)cc1` (stereo unspecified) | 69497 | fluorescent |
| `CCCCCCCCCCCCOCCOCCOCCOCCOCCOCCOCCOCCOCCO` | 26603 | partial curve |
| `CC(C)(c1ccc(O)cc1)c1ccc(O)cc1` | 69777 | cytotoxic |
| `CCCCCCCCCC(CC)c1ccc(S(=O)(=O)O)cc1` (stereo unspecified) | 28545 | activator, full curve, poor fit |
| `COc1cccc2c1cc([N+](=O)[O-])c1c(C(=O)O)cc3c(c12)OCO3` | 34376 | rising, partial curve |
| `CC(=O)[C@@]1(O)CC[C@H]2[C@@H]3C[C@H](C)C4=CC(=O)CC[C@]4(C)[C@H]3CC[C@@]21C` | 9439 | activator, partial curve |
| `C[C@]12CCC(=O)C[C@@H]1CC[C@@H]1[C@@H]2CC[C@]2(C)[C@@H](O)CC[C@@H]12` | 12115 | activator |
| `Nc1ccc2cc3ccccc3cc2c1` | 35936 | fluorescent, partial curve |
| `CCOP(=S)(OCC)SCn1c(=O)oc2cc(Cl)ccc21` | 27306 | activator |
| `O=[N+]([O-])c1c2ccccc2cc2ccccc12` | 28073 | fluorescent |
| `COc1ccc2sc(C(=O)Nc3nnn[nH]3)c(OC(C)C)c2c1` | 60882 | fluorescent, partial curve |
| `c1cc[c]([Bi]([c]2ccccc2)[c]2ccccc2)cc1` | 24336 | fluorescent, partial curve |
| `O=C(Nc1ccc(Cl)cc1)Nc1ccc(Cl)c(C(F)(F)F)c1` | 23710 | partial curve |
| `C[C@]12CCC(=O)C=C1C=C[C@@H]1[C@@H]2CC[C@@]2(C)[C@H]1CC[C@@]21CCC(=O)O1` | 26603 | fluorescent |
| `CCCN(CCC)c1c([N+](=O)[O-])cc(S(N)(=O)=O)cc1[N+](=O)[O-]` | 26711 | - |
| `Cc1c(C)c2c(c(C)c1O)CCC(C)(COc1ccc(CC3SC(=O)NC3=O)cc1)O2` (stereo unspecified) | 68589 | fluorescent, partial curve |
| `Cc1cc2c(cc1C(F)(F)F)N(C(=O)Nc1ccc(Oc3cccnc3C)nc1)CC2` | 62017 | activator |
| `C=Cc1ccc(S(=O)(=O)O)cc1` | 40320 | activator, partial curve |
| `CC1=C(/C=C/C(C)=C/C=C/C(C)=C/C(=O)O)C(C)(C)CCC1` | 76880 | activator, partial curve, poor fit |
| `C[C@H]1O[C@@H](O[C@H]2[C@@H](O)C[C@H](O[C@H]3[C@@H](O)C[C@H](O[C@H]4CC[C@@]5(C)[C@H](CC[C@@H]6[C@@H]5C[C@@H](O)[C@]5(C)[C@@H](C7=CC(=O)OC7)CC[C@]65O)C4)O[C@@H]3C)O[C@@H]2C)C[C@H](O)[C@@H]1O` | 137 | fluorescent, full curve |
| `Cc1cc(CCN2CCN(c3nsc4ccccc34)CC2)cc2c1NC(=O)CC2(C)C` | 54482 | rising, partial curve |
| `CC(C)COC(=O)COc1ccc(Cl)cc1Cl` | 61068 | rising, partial curve, poor fit |
| `C[C@H]1O[C@@H](O[C@H]2CC[C@@]3(C)[C@H](CC[C@@H]4[C@@H]3C[C@@H](O)[C@]3(C)[C@@H](C5=CC(=O)OC5)CC[C@]43O)C2)C[C@H](O)[C@@H]1O[C@H]1C[C@H](O)[C@H](O[C@H]2C[C@H](O)[C@H](O[C@@H]3O[C@H](CO)[C@@H](O)[C@H](O)[C@H]3O)[C@@H](C)O2)[C@@H](C)O1` | 375.8 | fluorescent, full curve |
| `NCCCOCCOCCOCCCN` | 34376 | activator, partial curve, poor fit |
| `CC(C)Cc1ccc(C(C)C(=O)O)cc1` (stereo unspecified) | 45240 | fluorescent, partial curve |
| `C[C@H](CCC(=O)O)[C@H]1CC[C@H]2[C@@H]3CC[C@@H]4C[C@H](O)CC[C@]4(C)[C@H]3C[C@H](O)[C@]12C` | 68798 | fluorescent, partial curve |
| `CCN(CCCCOC(=O)c1ccc(OC)c(OC)c1)C(C)Cc1ccc(OC)cc1` (stereo unspecified) | 23710 | activator, partial curve |
| `CCCC(=O)OC[C@@H](OC(=O)CCC)[C@@H](OC(=O)CCC)[C@H](Cn1c2nc(=O)[nH]c(=O)c-2nc2cc(C)c(C)cc21)OC(=O)CCC` | 23710 | fluorescent, partial curve |
| `CC/C=C\C/C=C\C/C=C\CCCCCCCC(=O)O` | 21491 | fluorescent, partial curve, poor fit |
| `CC(C)(c1ccccc1)c1ccc(O)cc1` | 30388 | - |
| `O=c1n(CC2CO2)c(=O)n(CC2CO2)c(=O)n1CC1CO1` (stereo unspecified) | 48557 | activator, partial curve, poor fit |
| `Clc1ccccc1C(c1ccccc1)(c1ccccc1)n1ccnc1` | 30637 | fluorescent, partial curve |
| `NC1CCN(c2nc3c(cc2F)c(=O)c(C(=O)O)cn3-c2ccc(F)cc2F)C1` (stereo unspecified) | 23710 | activator, partial curve, poor fit |
| `O=C1c2ccccc2C(=O)c2c(O)c(O)cc(O)c21` | 68589 | activator, single point |
| `CC(=O)O[C@]1(C(C)=O)CC[C@H]2[C@@H]3C=C(Cl)C4=CC(=O)[C@@H]5C[C@@H]5[C@]4(C)[C@H]3CC[C@@]21C` | 23710 | fluorescent, partial curve |
| `CCCCCCCCCCCCCCCCCCNC(=O)OC1CCN(C(=O)OC[C@H](COC(=O)N(Cc2cccc[n+]2CC)C(=O)c2ccccc2OC)OC)CC1` | 33491 | fluorescent |
| `CC(C)c1nnc2ccc(-c3ocnc3-c3cc(F)ccc3F)cn12` | 30637 | fluorescent, partial curve |

4 of the entries, repeated:

- O=C(Nc1ccc(Cl)cc1)Nc1ccc(Cl)c(C(F)(F)F)c1 : fitted potency 23710 nM (partial curve)
- CC/C=C\C/C=C\C/C=C\CCCCCCCC(=O)O : fitted potency 21491 nM (fluorescent, partial curve, poor fit)
- CC1=C(/C=C/C(C)=C/C=C/C(C)=C/C(=O)O)C(C)(C)CCC1 : fitted potency 76880 nM (activator, partial curve, poor fit)
- Clc1ccccc1C(c1ccccc1)(c1ccccc1)n1ccnc1 : fitted potency 30637 nM (fluorescent, partial curve)